Results as given in PMC11743138, “Structural basis for the interaction between the Drosophila RTK Sevenless (dROS1) and the GPCR BOSS” (Nature Communications, 2025).
These are yes or no findings as the source states them, for the method shown. Sequences can lack the tags named with a protein.

Protein sequences, listed by entry. Tags and fused reporters are not part of them. Lines headed by an entry give the natural chain unless they say otherwise; changes in a name come on top. Residues count along the entry.
UniProt P13368, residues 126-2113: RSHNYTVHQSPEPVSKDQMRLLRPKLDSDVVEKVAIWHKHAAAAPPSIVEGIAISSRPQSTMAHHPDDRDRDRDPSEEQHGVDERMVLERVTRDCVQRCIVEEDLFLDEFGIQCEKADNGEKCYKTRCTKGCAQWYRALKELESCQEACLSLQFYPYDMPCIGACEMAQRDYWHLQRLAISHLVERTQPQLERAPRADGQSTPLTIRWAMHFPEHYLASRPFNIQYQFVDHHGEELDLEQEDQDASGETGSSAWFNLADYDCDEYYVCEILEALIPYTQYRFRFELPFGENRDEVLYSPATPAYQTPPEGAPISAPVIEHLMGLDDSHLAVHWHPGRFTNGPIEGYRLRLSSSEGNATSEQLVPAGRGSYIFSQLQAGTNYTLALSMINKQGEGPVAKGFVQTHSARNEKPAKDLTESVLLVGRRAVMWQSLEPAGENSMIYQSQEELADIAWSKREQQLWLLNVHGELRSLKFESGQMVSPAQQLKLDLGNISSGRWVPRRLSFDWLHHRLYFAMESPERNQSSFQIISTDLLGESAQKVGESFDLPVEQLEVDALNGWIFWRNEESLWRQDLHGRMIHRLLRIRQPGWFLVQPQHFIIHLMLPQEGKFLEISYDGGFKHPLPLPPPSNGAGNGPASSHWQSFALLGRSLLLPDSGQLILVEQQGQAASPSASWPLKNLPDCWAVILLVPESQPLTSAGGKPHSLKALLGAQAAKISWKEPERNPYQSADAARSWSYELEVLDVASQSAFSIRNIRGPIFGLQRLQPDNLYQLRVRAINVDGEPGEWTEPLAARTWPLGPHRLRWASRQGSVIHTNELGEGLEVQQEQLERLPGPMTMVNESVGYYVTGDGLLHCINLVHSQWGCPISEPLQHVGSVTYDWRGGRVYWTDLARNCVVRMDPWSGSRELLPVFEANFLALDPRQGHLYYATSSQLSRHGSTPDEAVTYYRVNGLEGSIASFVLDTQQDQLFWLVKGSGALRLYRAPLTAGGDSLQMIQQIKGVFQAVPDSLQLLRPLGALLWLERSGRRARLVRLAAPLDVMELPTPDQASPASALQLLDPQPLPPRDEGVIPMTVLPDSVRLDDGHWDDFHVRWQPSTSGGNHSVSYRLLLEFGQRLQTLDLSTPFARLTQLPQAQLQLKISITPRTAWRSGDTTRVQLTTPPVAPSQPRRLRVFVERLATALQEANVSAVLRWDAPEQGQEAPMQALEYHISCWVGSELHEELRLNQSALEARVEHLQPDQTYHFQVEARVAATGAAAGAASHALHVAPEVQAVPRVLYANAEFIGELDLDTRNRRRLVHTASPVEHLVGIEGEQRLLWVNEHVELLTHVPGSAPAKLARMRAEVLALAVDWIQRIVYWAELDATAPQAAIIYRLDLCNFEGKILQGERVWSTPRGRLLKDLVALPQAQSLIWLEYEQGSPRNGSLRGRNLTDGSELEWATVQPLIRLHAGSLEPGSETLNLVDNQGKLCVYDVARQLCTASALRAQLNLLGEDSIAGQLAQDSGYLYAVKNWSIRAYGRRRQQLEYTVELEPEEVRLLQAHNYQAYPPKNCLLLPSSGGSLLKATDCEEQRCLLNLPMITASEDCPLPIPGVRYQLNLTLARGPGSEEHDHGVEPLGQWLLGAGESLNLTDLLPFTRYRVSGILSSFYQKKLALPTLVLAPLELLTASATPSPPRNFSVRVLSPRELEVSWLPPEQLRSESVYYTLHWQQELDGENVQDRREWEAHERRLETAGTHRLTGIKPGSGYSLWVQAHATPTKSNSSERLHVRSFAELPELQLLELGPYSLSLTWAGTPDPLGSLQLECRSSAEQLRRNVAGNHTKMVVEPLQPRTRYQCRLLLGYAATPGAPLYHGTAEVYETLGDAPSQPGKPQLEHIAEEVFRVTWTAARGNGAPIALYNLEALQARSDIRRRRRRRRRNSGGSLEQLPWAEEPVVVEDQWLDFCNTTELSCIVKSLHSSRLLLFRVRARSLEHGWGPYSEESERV

Target: dROS1 (Sevenless) full extracellular region, construct 1-9 (D. melanogaster) (UniProt P13368)
Experiment: SPR; BIAcore T200; dROS1 constructs covalently coupled (NHS/EDC) to a CM5 chip, BOSS ECR proteins flowed over at 10 µL/min for 180 s; 20 mM HEPES pH 7.5, 100 mM NaCl; plateau RU against BOSS concentration fitted to a single-site specific binding model; both purified

- binding: no binding
B1: BOSSDEQ extracellular region (L489 and L491 of LEL changed to DEQ), His tag cleaved (domain or fragment, UniProt P22815 102-510)
chain: GTTASLVPEICLNGLQLTVNSADEGTVIRKQEEFVKILEGDVVLSVLTKDPDSALFVINRVNQANLIMADFEIGIRAISIDNASLAENLLIQEVQFLQQCTTYSMGIFVDWELYKQLESVIKDLEYNIWPIPGTRAHLFPKVAHLLHQMPWGEKIASVEIATETLEMYNEFMEAARQEHMCLMHFKSDDNVYIMFGNKLASHFKENGTLFSVPTDRTDDEFLADLPNRAFVLMENEIDLSTAVELDATPTALDEILIGKSVLPSRVLSFAGSIIDLMNWLRGSLSKHCKRGEEHDLYVLESCFNFLNFIEDWRTSEYRQAHDTAEILSLLLMRKLGTAMNFQMYQKKVLTLDKITGESRTELREIASQNFVTNVTTYYHYNRDNHTSDEQKTKFGQVFNCQYSAGDNRR
